Results published in PMC3037368.
Results are given in words; binding and its absence hold for the method and conditions named. For some assays here: In cells and extracts the contact can be indirect. Some binding calls cover weakened binding; strength is not graded here. Tags and fused reporters may be left off the sequences shown. Values belong to the binder of their own block, whether it stands above or below them.

Experiments:
[1] = target: T1, AtBPC6, split-YFP (BiFC) fusion (Arabidopsis thaliana) (UniProt Q8L999); experiment: split reporter; BiFC with split-YFP fusions (YFP fragments at the N-termini) in transiently transformed Nicotiana benthamiana leaf epidermis cells; YFP fluorescence scored by CLSM one to two days post infiltration
T1 sequence: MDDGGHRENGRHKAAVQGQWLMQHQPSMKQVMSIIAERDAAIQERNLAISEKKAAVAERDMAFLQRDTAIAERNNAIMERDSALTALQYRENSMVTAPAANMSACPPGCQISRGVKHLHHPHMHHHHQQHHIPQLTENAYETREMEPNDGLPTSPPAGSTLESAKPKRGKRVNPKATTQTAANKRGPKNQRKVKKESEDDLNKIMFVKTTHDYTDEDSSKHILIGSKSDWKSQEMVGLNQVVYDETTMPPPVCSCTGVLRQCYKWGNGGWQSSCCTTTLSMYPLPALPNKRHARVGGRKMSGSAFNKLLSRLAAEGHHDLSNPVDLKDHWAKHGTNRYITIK

[2] = target: AtBPC4 (Arabidopsis thaliana BASIC … 4), yeast two-hybrid fusion (Arabidopsis thaliana) (UniProt Q8S8C6); experiment: two-hybrid; AD (pGADT7-DEST) and BD (pGBKT7-DEST) fusions in yeast PJ69-4A; growth on selective media (CSM-L-,W-,Ade-) and β-galactosidase reporter activity (MUG substrate, n = 9), background from empty AD-clone combinations
[3] = target: T2, AtBPC6 (Arabidopsis thaliana BASIC … 6), full-length, yeast two-hybrid fusion (Arabidopsis thaliana) (UniProt Q8L999); experiment: as above
T2 sequence: T1 sequence

[4] = target: AtBPC1 (Arabidopsis thaliana BASIC … 1), yeast two-hybrid fusion (Arabidopsis thaliana) (UniProt Q9SKD0); experiment: as above
[5] = target: T3, BPC6-RFP (AtBPC6 with RFP at the C-terminus) (Arabidopsis thaliana) (UniProt Q8L999); experiment: FRET or BRET; FRET-FLIM in planta: GFP (donor) and RFP (acceptor) fusions of AtBPC6 transiently co-expressed in Nicotiana benthamiana epidermis cells; RFP-FRET fluorescence under GFP excitation and GFP fluorescence lifetime; controls BPC6-GFP alone and with mCherry-NLS
T3 sequence: T1 sequence

[6] = target: T4, RFP-BPC6 (AtBPC6 with RFP at the N-terminus) (Arabidopsis thaliana) (UniProt Q8L999); experiment: as above
T4 sequence: T1 sequence

B1: AtBPC4, split-YFP (BiFC) fusion (protein, UniProt Q8S8C6 1-296)
chain: MENGGQYDNARFKPDYFKGAQSMWNMIPQHQIKEQHNALVMNKKIMSILAERDAAVHERNQAVSAKKEAVAARDEALQQRDKALSERDKALIERDNAYAALQHHENSLNFALSGGKCVDGDDCFGIGEPHKLEVFPLSTIPPEVTNTKVVNKRKKENKQGLSKVKKVGEDLNRRVPAPGKKSRTDWDSQDVGLNLVTFDETTMPVPMCSCTGSTRQCYKWGNGGWQSSCCTTTLSQYPLPQMPNKRHSRMGGRKMSGNVFSRLLSRLSAEGYDLSCPVDLKDYWARHGTNRYITIK
binding [1]: binds

B2: AtBPC4 (Arabidopsis thaliana BASIC … 4), yeast two-hybrid fusion (protein, UniProt Q8S8C6 1-296)
chain: B1 chain
binding [2]: binds
binding [3]: binds

B3: AtBPC1 (Arabidopsis thaliana BASIC … 1), yeast two-hybrid fusion (protein, UniProt Q9SKD0 1-283)
chain: MDDDGFRNWGYYEPAAASSFKGNLGLQLMSTIDRNTKPFLPGRESNLMIGSNGSYHSREQDMNYSWINQPKDNKFFNMLPISTPSYSNVLSETSGSNSIQMIHQPVLNSSRFEENPIPPPAPCEEQTGKKRKMRGSIATPTVPKAKKMRKPKEERDVTNNNVQQQQQRVKPVKKSVDLVINGVSMDISGLPVPVCTCTGTPQQCYRWGCGGWQSACCTTNISVYPLPMSTKRRGARISGRKMSQGAFKKVLEKLSTEGYSFGNAIDLKSHWARHGTNKFVTIR
binding [4]: binds weakly

B4: AtBPC6 (Arabidopsis thaliana BASIC … 6), full-length, yeast two-hybrid fusion (protein, UniProt Q8L999 1-342)
chain: T1 sequence
binding [3]: binds

Continued, values first:

binding [5]: binds
binding [6]: binds
B5: BPC6-GFP (AtBPC6 with GFP at the C-terminus) (protein, UniProt Q8L999 1-342)
chain: T1 sequence

binding [5]: binds
binding [6]: binds
B6: GFP-BPC6 (AtBPC6 with GFP at the N-terminus) (protein, UniProt Q8L999 1-342)
chain: T1 sequence

binding [1]: binds
B7: AtBPC6, split-YFP (BiFC) fusion (protein, UniProt Q8L999 1-342)
chain: T1 sequence

binding [1]: no binding
B8: YFP^C-bZIP63 (protein, UniProt B9DGI8 1-314)
chain: MEKVFSDEEISGNHHWSVNGMTSLNRSASEWAFNRFIQESSAAADDGESTTACGVSVSSPPNVPVDSEEYRAFLKSKLNLACAAVAMKRGTFIKPQDTSGRSDNGGANESEQASLASSKATPMMSSAITSGSELSGDEEEADGETNMNPTNVKRVKRMLSNRESARRSRRRKQAHLSELETQVSQLRVENSKLMKGLTDVTQTFNDASVENRVLKANIETLRAKVKMAEETVKRLTGFNPMFHNMPQIVSTVSLPSETSNSPDTTSSQVTTPEIISSGNKGKALIGCKMNRTASMRRVESLEHLQKRIRSVGDQ
